PubChem BioAssay AID1508597 – Cure First – 2020

Screen: 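Genes whose silencing sensitises or protects ovarian cancer cells against rucaparib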 (primary screen)
System: human ovarian carcinoma lines grown from tumours: OCI-P5x (papillary serous) and OCI-C5x (clear cell)
Knock-down reagent: siRNA pool against human genes, 1.25 pmol siRNA per well
Timing: 72 h or 96 h, depending on the cell culture
Challenge: rucaparib 20 µM (about IC30) or vehicle, present until read-out
Rucaparib or vehicle: Vehicle
Cell line: OCI-C5x (clear cell)
Measured: 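ATP luminescence measured at 72 or 96 h according to the culture, then normalised and expressed as percent viability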
Scale: viability, normalised: higher = more viable cells remaining
Rule for the call: 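Active when normalised viability falls below 80 percent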
Meaning of the calls: active = viability under 80%; inactive = viability 80% or more
This is a random part of the about 2,100 reagents, under one of the conditions tested. 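Calls flag viability under 80% in either arm, not effects specific to rucaparib; the reference for percent is not stated.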 Entries without a mark were called inactive. Some reagents were tested in more than one well and are listed for each. Reagent sequences are not shown. Not stated in the record: the 100% reference.

gene | technical replicate | viability, normalised (%)
ACE | 1 | 60.4 (active)
ACE | 2 | 57.2 (active)
ACE | 3 | 44.6 (active)
PARP4 | 1 | 41.1 (active)
PARP4 | 1 | 66.7 (active)
PARP4 | 2 | 40.4 (active)
PARP4 | 2 | 56.2 (active)
PARP4 | 3 | 56.4 (active)
PARP4 | 3 | 35.4 (active)

The list goes on; the last 2 above are carried over.
gene | technical replicate | viability, normalised (%)
PARP4 | 3 | 56.4 (active)
PARP4 | 3 | 35.4 (active)
ERN2 | 1 | 89.4
ERN2 | 2 | 62.8 (active)
ERN2 | 3 | 64.3 (active)
CTBP1-DT | 1 | 71.9 (active)
CTBP1-DT | 2 | 66 (active)
CTBP1-DT | 3 | 78.1 (active)
H4C13 | 1 | 52.7 (active)
H4C13 | 2 | 50.7 (active)
H4C13 | 3 | 53.3 (active)
TSSK3 | 1 | 79.2 (active)
TSSK3 | 2 | 75.4 (active)
TSSK3 | 3 | 66.2 (active)
MAP2K2 | 1 | 38.8 (active)
MAP2K2 | 2 | 52.4 (active)
MAP2K2 | 3 | 43 (active)
